# Data as given in patent US20250082620A1, “NOVEL CINNAMAMIDE DERIVATIVES AND USE THEREOF” (KOREA RESEARCH INSTITUTE OF BIOSCIENCE AND BIOTECHNOLOGY, priority 2022, published 2025).
# The chains behind the UniProt entries cited, without tags or fusion partners.
# UniProt P40763, whole entry: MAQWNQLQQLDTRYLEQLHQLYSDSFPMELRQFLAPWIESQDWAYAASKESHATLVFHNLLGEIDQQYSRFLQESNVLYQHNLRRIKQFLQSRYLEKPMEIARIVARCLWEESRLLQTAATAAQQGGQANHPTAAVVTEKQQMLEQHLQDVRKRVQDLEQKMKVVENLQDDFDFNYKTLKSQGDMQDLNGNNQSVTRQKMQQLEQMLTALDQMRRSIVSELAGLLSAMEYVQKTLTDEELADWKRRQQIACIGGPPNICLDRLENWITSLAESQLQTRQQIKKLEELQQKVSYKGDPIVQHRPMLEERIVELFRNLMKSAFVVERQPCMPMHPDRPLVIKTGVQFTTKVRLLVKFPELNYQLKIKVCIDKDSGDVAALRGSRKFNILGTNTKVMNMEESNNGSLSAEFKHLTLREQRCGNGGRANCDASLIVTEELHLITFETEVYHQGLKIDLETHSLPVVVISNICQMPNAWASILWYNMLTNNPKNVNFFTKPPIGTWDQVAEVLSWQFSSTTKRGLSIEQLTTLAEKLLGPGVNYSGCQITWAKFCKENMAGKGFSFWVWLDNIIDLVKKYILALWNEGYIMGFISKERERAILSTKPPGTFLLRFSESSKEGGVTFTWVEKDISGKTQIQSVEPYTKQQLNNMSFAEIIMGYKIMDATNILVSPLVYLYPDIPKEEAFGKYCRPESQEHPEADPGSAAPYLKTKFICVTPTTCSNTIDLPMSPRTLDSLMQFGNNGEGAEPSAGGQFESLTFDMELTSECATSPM
# Some of these results come from one statement about several compounds together.
# Biological target: T1, STAT3 phosphorylation (p-STAT3) (Homo sapiens, UniProt P40763)
# T1 construct: endogenous in cells; host or cells: NKL natural killer cells
# Test: STAT3 phosphorylation inhibition in natural killer cells (NKL) by Western blot
# Assay type: cell-based
# Settings: 5 μM or more
# Description: Prostate cancer cell line DU-145, breast cancer cell MDA-MB 468, lung cancer cell HCC827, natural killer cells (NKL), or bone marrow-derived macrophages (BMDM) (4×10^5 cells), which are immune cells, were plated in a 6-well plate. After 24 hours, the cells were each treated with 0.1% DMSO, HCA, EA, and the compounds prepared in Synthesis Examples 1 to 8 according to concentration and time, washed with PBS, and recovered using RIPA buffer. […] of protein quantified using the Bio-Rad protein assay kit (Bio-Rad, Hercules, California, USA) was subjected to 8% SDS-PAGE electrophoresis and transferred to a PVDF membrane (EMD Millipore, Billerica, MA, USA). After blocking the membrane with TBST containing 5% skim milk, the experiment was performed using primary and secondary antibodies. […] The antibodies used were each washed three times with TBST, and bands were detected using Luminata Forte Western HRP substrate (EMD Millipore) by LAS 4000 mini (GE Healthcare Life Sciences). […]
# Specifically, NKL (4×10^5 cells) were plated in 6-well plate and each treated with 2 μM, 5 μM, and 10 μM of CG155 or CG165, and then the degree of STAT3 phosphorylation was measured by Western blot using p-STAT3 antibody.
row,Compound,inhibition of STAT3 activation
1,C=C(C)C(=O)NC(=O)/C=C/c1ccccc1OCc1ccncc1 [CG155],more than 90%
2,C#CCOc1ccccc1/C=C/C(=O)N(C)C(=O)C(=C)C [CG165],more than 90%
